This is one part of the list.
Legend:
Experiment in all cases: log2 fold change, soluble protein after heating vs DMSO (PISA); higher = thermal stabilisation; K562 cells, 10 uM, 30 min; active = over 0.2 and 3.5 SD of the protein, either way, in both replicates (recomputed)
saracatinib = compound: CN1CCN(CCOc2cc(OC3CCOCC3)c3c(Nc4c(Cl)ccc5c4OCO5)ncnc3c2)CC1 [saracatinib]
Method in brief: (§1)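 K562 cells at 2×10^6 cells/mL were given 10 μM compound for 30 min. Aliquots then went through 3 min of heating across 48°C-58°C, were pooled, and were extracted in PBS with 0.5% NP-40 at 4°C, and the supernatant after 21,000xg for 90 min was quantified by TMTpro 16plex LC-MS/MS with channel sums equalised. Thermal stability relative to control samples, from duplicates, is given as log2 fold change.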

Sequences of proteins named here, by UniProt entry; tags and fusion partners are left off. A change or cut given only in a name is not applied to a line headed by its entry.
UniProt P12081: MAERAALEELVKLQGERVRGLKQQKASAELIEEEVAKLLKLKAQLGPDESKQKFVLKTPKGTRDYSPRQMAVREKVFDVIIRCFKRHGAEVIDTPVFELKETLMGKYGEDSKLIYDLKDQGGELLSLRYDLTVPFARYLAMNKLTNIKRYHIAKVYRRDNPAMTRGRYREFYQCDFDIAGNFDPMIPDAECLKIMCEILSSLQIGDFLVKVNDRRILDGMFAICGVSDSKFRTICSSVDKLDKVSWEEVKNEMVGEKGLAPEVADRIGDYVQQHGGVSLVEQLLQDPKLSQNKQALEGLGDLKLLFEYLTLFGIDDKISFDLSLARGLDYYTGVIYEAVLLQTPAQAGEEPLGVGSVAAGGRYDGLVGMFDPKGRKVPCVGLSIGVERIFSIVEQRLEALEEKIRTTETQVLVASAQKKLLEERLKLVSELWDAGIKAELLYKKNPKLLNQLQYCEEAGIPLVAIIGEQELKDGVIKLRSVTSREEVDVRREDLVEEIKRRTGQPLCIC
UniProt Q8N4P3, whole entry, looked up: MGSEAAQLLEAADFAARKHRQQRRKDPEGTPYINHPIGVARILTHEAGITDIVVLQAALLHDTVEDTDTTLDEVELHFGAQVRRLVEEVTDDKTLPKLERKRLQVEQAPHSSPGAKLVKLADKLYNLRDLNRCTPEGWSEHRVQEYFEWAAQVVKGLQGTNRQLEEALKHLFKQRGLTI
UniProt P16403, whole entry, looked up: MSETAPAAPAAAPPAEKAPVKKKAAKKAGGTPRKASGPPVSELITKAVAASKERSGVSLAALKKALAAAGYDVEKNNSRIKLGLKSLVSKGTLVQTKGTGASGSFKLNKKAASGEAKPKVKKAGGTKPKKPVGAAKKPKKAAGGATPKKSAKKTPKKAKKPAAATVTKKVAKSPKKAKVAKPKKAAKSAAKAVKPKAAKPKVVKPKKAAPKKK
UniProt P10412, whole entry, looked up: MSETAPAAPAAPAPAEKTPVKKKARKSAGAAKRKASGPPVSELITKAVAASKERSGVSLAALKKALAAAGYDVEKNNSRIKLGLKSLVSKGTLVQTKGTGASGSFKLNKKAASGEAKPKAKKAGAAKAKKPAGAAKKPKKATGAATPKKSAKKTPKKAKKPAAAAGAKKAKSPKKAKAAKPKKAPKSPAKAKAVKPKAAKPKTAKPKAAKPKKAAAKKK
UniProt Q12789: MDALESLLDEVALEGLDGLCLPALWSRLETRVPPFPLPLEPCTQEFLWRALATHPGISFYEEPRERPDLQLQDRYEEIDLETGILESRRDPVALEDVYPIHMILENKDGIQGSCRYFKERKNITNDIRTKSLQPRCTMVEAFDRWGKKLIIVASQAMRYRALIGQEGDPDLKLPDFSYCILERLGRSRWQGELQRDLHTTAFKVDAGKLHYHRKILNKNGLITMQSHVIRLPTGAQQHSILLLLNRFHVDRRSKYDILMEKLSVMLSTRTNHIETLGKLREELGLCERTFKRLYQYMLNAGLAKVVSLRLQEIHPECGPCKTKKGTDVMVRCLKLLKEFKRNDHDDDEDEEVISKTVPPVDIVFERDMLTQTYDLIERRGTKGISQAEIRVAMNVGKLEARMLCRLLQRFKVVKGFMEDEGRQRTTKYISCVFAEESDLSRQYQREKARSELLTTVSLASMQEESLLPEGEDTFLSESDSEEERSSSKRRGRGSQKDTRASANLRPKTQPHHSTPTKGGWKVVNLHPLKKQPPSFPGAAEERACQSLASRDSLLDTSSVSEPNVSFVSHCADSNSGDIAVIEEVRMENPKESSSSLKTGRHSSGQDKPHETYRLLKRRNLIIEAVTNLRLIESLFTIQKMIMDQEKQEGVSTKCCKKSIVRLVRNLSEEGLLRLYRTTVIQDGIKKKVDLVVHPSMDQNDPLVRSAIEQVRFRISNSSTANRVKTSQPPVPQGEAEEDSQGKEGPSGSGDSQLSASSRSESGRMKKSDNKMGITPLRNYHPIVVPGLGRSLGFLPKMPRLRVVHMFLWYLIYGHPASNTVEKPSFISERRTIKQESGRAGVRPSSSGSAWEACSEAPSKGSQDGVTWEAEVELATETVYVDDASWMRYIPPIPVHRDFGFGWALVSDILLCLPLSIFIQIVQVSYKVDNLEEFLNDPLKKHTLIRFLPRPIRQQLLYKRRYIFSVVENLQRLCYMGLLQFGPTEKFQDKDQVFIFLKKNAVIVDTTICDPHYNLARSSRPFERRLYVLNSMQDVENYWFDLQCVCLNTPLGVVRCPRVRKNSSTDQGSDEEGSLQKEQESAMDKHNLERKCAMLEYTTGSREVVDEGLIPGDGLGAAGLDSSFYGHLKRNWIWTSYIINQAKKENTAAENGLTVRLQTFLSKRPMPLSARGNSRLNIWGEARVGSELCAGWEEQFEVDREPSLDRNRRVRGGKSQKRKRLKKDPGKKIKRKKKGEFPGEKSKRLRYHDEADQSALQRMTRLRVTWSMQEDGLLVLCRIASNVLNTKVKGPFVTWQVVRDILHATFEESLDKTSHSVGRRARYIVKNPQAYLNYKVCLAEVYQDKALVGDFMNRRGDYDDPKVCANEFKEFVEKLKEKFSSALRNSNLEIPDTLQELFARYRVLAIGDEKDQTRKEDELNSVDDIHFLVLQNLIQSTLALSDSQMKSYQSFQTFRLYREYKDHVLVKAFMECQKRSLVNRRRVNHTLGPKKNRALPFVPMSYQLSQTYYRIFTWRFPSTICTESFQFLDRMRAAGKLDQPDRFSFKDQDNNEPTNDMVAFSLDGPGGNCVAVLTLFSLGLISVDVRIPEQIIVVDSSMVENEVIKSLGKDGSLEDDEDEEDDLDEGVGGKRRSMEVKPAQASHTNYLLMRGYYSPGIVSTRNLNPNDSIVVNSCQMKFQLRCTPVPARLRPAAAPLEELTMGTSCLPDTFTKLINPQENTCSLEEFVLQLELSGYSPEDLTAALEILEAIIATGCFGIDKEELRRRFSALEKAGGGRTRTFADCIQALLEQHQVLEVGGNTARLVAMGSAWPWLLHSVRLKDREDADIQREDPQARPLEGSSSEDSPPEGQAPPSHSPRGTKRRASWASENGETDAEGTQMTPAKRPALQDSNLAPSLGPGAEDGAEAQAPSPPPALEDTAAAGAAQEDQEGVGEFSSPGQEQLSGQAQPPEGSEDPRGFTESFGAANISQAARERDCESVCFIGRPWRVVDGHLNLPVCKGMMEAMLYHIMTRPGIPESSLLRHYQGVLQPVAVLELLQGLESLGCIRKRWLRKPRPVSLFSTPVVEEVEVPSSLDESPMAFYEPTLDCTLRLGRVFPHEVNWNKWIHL
UniProt Q969Y2: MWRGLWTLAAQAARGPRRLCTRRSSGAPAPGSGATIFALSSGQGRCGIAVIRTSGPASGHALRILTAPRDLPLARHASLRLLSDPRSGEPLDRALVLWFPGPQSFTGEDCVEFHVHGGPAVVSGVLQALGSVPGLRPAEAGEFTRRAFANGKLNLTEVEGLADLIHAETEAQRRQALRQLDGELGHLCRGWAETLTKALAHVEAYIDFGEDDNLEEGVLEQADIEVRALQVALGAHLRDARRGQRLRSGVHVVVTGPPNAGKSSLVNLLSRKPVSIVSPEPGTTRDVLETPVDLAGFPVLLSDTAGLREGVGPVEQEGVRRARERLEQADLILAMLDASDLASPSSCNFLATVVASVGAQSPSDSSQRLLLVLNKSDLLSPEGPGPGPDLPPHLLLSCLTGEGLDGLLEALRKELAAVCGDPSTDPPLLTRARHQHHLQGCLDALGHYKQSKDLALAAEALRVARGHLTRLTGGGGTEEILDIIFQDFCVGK
UniProt Q6AI08: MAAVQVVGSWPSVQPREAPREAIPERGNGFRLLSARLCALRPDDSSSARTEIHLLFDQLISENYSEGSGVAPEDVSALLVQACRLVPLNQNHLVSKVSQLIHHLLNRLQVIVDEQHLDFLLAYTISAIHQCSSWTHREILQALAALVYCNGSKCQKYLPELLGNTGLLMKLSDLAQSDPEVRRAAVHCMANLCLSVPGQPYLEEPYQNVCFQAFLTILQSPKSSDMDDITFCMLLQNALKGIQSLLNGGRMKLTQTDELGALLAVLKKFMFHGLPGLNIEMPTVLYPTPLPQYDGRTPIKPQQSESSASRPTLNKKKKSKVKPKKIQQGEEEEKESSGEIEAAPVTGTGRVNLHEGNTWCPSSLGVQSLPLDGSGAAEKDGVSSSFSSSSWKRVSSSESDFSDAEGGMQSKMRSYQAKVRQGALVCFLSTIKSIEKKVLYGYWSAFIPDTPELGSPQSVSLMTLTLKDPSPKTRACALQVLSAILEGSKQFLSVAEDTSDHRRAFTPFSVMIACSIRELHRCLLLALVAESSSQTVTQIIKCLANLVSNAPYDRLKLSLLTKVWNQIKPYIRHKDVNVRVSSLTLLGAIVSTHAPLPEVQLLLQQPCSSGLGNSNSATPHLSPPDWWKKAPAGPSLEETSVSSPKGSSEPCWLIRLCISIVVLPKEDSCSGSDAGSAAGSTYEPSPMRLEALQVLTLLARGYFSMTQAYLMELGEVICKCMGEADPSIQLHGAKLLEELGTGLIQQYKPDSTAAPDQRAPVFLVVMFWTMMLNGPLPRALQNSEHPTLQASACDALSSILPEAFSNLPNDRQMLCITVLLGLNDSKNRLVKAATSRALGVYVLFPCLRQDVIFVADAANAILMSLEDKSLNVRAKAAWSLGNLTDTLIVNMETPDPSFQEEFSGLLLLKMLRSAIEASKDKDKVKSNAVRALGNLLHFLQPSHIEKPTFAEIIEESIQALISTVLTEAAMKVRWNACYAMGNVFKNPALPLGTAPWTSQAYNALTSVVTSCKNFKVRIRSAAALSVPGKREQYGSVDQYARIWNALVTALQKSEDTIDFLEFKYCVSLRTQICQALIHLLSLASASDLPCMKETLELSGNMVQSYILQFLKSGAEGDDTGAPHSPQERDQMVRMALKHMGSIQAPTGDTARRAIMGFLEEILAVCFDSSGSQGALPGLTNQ
UniProt Q9BX10: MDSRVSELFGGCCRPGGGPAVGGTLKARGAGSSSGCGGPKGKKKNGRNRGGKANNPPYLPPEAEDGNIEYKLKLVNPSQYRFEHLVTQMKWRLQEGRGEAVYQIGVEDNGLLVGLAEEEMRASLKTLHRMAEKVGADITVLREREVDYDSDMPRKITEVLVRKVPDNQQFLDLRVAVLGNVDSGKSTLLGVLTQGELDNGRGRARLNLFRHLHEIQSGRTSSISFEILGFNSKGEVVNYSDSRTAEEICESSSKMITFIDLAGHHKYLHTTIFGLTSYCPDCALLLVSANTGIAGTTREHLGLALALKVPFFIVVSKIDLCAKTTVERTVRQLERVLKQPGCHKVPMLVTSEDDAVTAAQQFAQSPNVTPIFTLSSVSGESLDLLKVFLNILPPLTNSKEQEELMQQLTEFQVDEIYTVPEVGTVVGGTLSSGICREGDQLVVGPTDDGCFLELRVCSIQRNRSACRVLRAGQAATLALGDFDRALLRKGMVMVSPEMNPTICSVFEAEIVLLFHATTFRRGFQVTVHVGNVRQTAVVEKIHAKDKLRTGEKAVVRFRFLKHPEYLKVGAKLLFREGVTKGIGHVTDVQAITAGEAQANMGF
UniProt P21266: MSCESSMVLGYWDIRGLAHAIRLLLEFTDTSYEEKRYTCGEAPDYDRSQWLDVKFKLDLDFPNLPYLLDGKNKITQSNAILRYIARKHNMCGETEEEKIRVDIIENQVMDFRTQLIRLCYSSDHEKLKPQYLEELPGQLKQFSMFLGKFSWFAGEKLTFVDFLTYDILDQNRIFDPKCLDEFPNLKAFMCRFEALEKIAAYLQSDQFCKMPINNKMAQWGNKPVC
UniProt P16402, whole entry, looked up: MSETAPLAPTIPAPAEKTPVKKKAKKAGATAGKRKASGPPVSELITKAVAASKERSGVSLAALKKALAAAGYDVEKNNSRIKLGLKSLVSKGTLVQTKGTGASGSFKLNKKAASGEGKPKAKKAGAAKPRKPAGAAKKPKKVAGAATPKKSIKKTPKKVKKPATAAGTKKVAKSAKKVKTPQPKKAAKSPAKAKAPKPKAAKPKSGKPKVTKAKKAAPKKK
UniProt P02100: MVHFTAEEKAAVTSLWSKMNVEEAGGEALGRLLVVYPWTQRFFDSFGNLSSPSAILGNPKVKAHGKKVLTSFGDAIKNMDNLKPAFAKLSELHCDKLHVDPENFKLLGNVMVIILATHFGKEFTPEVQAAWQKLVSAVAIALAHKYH
UniProt P14317: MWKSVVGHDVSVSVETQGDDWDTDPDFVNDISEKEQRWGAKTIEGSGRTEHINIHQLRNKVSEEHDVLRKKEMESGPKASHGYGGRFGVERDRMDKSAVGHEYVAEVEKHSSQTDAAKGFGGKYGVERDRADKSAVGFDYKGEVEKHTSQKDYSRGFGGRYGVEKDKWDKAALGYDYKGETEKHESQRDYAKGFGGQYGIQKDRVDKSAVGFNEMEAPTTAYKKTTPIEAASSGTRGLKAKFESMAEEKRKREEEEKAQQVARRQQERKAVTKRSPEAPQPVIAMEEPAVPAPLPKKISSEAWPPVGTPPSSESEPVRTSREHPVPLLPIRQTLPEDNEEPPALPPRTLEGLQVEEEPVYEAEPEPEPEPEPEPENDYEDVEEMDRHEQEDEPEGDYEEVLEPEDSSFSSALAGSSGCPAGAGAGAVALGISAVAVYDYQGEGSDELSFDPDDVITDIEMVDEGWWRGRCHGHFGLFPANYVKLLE

sotrastaurin = compound: CN1CCN(c2nc(C3=C(c4c[nH]c5ccccc45)C(=O)NC3=O)c3ccccc3n2)CC1 [sotrastaurin]
Method in brief: as §1

alvocidib = compound: CN1CC[C@H](c2c(O)cc(O)c3c(=O)cc(-c4ccccc4Cl)oc23)[C@H](O)C1 [alvocidib]
Method in brief: as §1

Tubastatin A = compound: CN1CCc2c(c3ccccc3n2Cc2ccc(C(=O)NO)cc2)C1 [Tubastatin A]
Method in brief: as §1

[1] = compound: CNC(=O)C1=CC=CC=C1NC2=NC(=NC=C2Cl)NC3=C(C=C(C=C3)N4CCOCC4)OC
Method in brief: as §1

defactinib = compound: CNC(=O)c1ccc(Nc2ncc(C(F)(F)F)c(NCc3nccnc3N(C)S(C)(=O)=O)n2)cc1 [defactinib]
Method in brief: as §1

rucaparib = compound: CNCc1ccc(-c2[nH]c3cc(F)cc4c3c2CCNC4=O)cc1 [rucaparib]
Method in brief: as §1

[2] = compound: CNc1nc(-c2ccc3c(N)n[nH]c3c2)cc(N2C[C@@H](C(=O)NC3CCCCC3)CC[C@H]2C)n1
Method in brief: as §1

encorafenib = compound: COC(=O)N[C@@H](C)CNc1nccc(-c2cn(C(C)C)nc2-c2cc(Cl)cc(NS(C)(=O)=O)c2F)n1 [encorafenib]
Method in brief: as §1

[3] = compound: COC(=O)[C@H](CCSC)NC(=O)C1=C(C=C(C=C1)NC[C@H](CS)N)C2=CC=CC=C2
Method in brief: as §1

Measured: log2 fold change

HARS (UniProt P12081)
inactive: saracatinib 0.031 | sotrastaurin 0.034 | alvocidib 0.012 | Tubastatin A -0.045 | [1] -0.038 | defactinib 0.005 | rucaparib -0.056 | [2] -0.035 | encorafenib -0.019 | [3] 0.053

HDDC3 (UniProt Q8N4P3)
inactive: saracatinib 0.008 | sotrastaurin 0.107 | alvocidib -0.014 | Tubastatin A -0.057 | [1] -0.025 | defactinib 0.012 | rucaparib -0.021 | [2] -0.044 | encorafenib -0.039 | [3] 0.035

H1-2 (UniProt P16403)
inactive: saracatinib -0.236 | sotrastaurin -0.087 | alvocidib 0.36 | Tubastatin A 0.039 | [1] 0.023 | defactinib 0.323 | rucaparib 0.371 | [2] 0.124 | encorafenib 0.144 | [3] 0.009

HDHD5 (UniProt Q9BXW7)
inactive: saracatinib -0.041 | sotrastaurin -0.034 | alvocidib -0.157 | Tubastatin A -0.01 | [1] 0.065 | defactinib -0.071 | rucaparib 0.036 | [2] -0.074 | encorafenib -0.024 | [3] -0.087

H1-4 (UniProt P10412)
inactive: saracatinib -0.22 | sotrastaurin -0.091 | alvocidib 0.269 | Tubastatin A 0.034 | [1] -0.002 | defactinib 0.311 | rucaparib 0.479 | [2] 0.121 | encorafenib 0.122 | [3] 0.032

HACD3 (UniProt Q9P035)
inactive: saracatinib -0.003 | sotrastaurin 0.009 | alvocidib -0.016 | Tubastatin A -0.024 | [1] 0.012 | defactinib 0.01 | rucaparib -0.055 | [2] -0.004 | encorafenib 0.069 | [3] 0.001

HACL1 (UniProt Q9UJ83)
inactive: saracatinib 0.053 | sotrastaurin -0.009 | alvocidib 0.025 | Tubastatin A -0.009 | [1] -0.015 | defactinib 0.013 | rucaparib -0.024 | [2] -0.001 | encorafenib 0.002 | [3] 0.007

HBS1L (UniProt Q9Y450)
inactive: saracatinib 0.026 | sotrastaurin 0.017 | alvocidib -0.003 | Tubastatin A 0.006 | [1] 0.016 | defactinib 0.017 | rucaparib -0.002 | [2] 0.005 | encorafenib 0.027 | [3] -0.02

HEBP2 (UniProt Q9Y5Z4)
inactive: saracatinib 0.045 | sotrastaurin 0.019 | alvocidib -0.038 | Tubastatin A -0.043 | [1] -0.019 | defactinib 0.006 | rucaparib -0.118 | [2] -0.017 | encorafenib -0.013 | [3] 0.045

GTF3C1 (UniProt Q12789)
inactive: saracatinib -0.125 | sotrastaurin -0.265 | alvocidib 0.103 | Tubastatin A 0.182 | [1] -0.169 | defactinib 0.011 | rucaparib -0.337 | [2] -0.049 | encorafenib 0.238 | [3] 0.038

GTPBP3 isoform 2 (UniProt Q969Y2)
inactive: saracatinib 0.016 | sotrastaurin -0.01 | alvocidib -0.016 | Tubastatin A -0.066 | [1] -0.034 | defactinib -0.028 | rucaparib -0.001 | [2] -0.075 | encorafenib -0.061 | [3] 0.029

GSS (UniProt P48637)
inactive: saracatinib 0 | sotrastaurin 0.035 | alvocidib -0.006 | Tubastatin A -0.037 | [1] -0.047 | defactinib -0.019 | rucaparib -0.036 | [2] -0.059 | encorafenib -0.023 | [3] 0.02

HEATR6 (UniProt Q6AI08)
inactive: saracatinib -0.047 | sotrastaurin -0.161 | alvocidib -0.014 | Tubastatin A 0.023 | [1] -0.062 | defactinib 0.077 | rucaparib -0.047 | [2] -0.075 | encorafenib -0.039 | [3] -0.12

HAGH (UniProt Q16775)
inactive: saracatinib -0.004 | sotrastaurin 0.032 | alvocidib -0.006 | Tubastatin A -0.039 | [1] -0.018 | defactinib -0.004 | rucaparib -0.002 | [2] -0.056 | encorafenib -0.051 | [3] 0.041

HDGFL3 (UniProt Q9Y3E1)
inactive: saracatinib -0.019 | sotrastaurin -0.014 | alvocidib 0.064 | Tubastatin A -0.053 | [1] -0.017 | defactinib -0.008 | rucaparib 0.007 | [2] -0.012 | encorafenib -0.073 | [3] 0.025

H1-5 (UniProt P16401)
inactive: saracatinib -0.134 | sotrastaurin -0.06 | alvocidib 0.301 | Tubastatin A 0.03 | [1] 0.041 | defactinib 0.291 | rucaparib 0.317 | [2] 0.133 | encorafenib 0.122 | [3] -0.007

HDLBP (UniProt Q00341)
inactive: saracatinib -0.162 | sotrastaurin -0.181 | alvocidib 0.117 | Tubastatin A 0.082 | [1] 0.035 | defactinib 0.194 | rucaparib 0.499 | [2] 0.057 | encorafenib 0.246 | [3] -0.03

GTPBP2 (UniProt Q9BX10)
inactive: saracatinib -0.047 | sotrastaurin -0.053 | alvocidib -0.003 | Tubastatin A -0.006 | [1] -0.011 | defactinib 0.061 | rucaparib 0.053 | [2] 0.046 | encorafenib 0.062 | [3] -0.019

2 neighbouring records out of the list so far, for reference:
H1-5 (UniProt P16401)
inactive: saracatinib -0.134 | sotrastaurin -0.06 | alvocidib 0.301 | Tubastatin A 0.03 | [1] 0.041 | defactinib 0.291 | rucaparib 0.317 | [2] 0.133 | encorafenib 0.122 | [3] -0.007

HDLBP (UniProt Q00341)
inactive: saracatinib -0.162 | sotrastaurin -0.181 | alvocidib 0.117 | Tubastatin A 0.082 | [1] 0.035 | defactinib 0.194 | rucaparib 0.499 | [2] 0.057 | encorafenib 0.246 | [3] -0.03

Additional entries follow.

GSTM3 (UniProt P21266)
inactive: saracatinib 0.085 | sotrastaurin -0.032 | alvocidib -0.004 | Tubastatin A -0.018 | [1] -0.046 | defactinib -0.027 | rucaparib 0.027 | [2] 0.02 | encorafenib 0.045 | [3] 0.039

HELB (UniProt Q8NG08)
inactive: saracatinib 0.028 | sotrastaurin 0.042 | alvocidib -0.034 | Tubastatin A 0.011 | [1] 0.111 | defactinib 0.006 | rucaparib -0.13 | [2] -0.052 | encorafenib 0.014 | [3] -0.052

HECTD3 (UniProt Q5T447)
inactive: saracatinib -0.101 | sotrastaurin -0.026 | alvocidib 0.026 | Tubastatin A 0.02 | [1] -0.02 | defactinib 0.023 | rucaparib 0.077 | [2] -0.011 | encorafenib 0.069 | [3] 0

HEMGN (UniProt Q9BXL5)
inactive: saracatinib 0 | sotrastaurin 0.071 | alvocidib 0.043 | Tubastatin A -0.005 | [1] -0.009 | defactinib 0.03 | rucaparib -0.019 | [2] -0.007 | encorafenib -0.018 | [3] 0.026

HCFC1 isoform 4 (UniProt P51610)
inactive: saracatinib -0.029 | sotrastaurin 0.014 | alvocidib -0.02 | Tubastatin A 0.006 | [1] 0.006 | defactinib 0.014 | rucaparib 0.025 | [2] -0.016 | encorafenib -0.007 | [3] -0.039

HDHD3 (UniProt Q9BSH5)
inactive: saracatinib 0.013 | sotrastaurin 0.048 | alvocidib 0.018 | Tubastatin A 0.062 | [1] -0.024 | defactinib -0.018 | rucaparib -0.003 | [2] -0.105 | encorafenib -0.03 | [3] 0.008

GSTK1 (UniProt Q9Y2Q3)
inactive: saracatinib -0.055 | sotrastaurin 0.007 | alvocidib -0.046 | Tubastatin A 0.004 | [1] -0.031 | defactinib -0.016 | rucaparib -0.049 | [2] 0.05 | encorafenib 0.012 | [3] -0.02

H1-3 (UniProt P16402)
inactive: saracatinib -0.04 | sotrastaurin -0.079 | alvocidib 0.252 | Tubastatin A 0.054 | [1] 0.035 | defactinib 0.263 | rucaparib 0.284 | [2] 0.096 | encorafenib 0.147 | [3] -0.04

HBE1 (UniProt P02100)
inactive: saracatinib -0.012 | sotrastaurin 0.005 | alvocidib -0.037 | Tubastatin A -0.117 | [1] -0.033 | defactinib -0.028 | rucaparib -0.034 | [2] -0.007 | encorafenib -0.026 | [3] -0.049

H4C1 (UniProt P62805)
inactive: saracatinib -0.173 | sotrastaurin 0.042 | alvocidib 0.105 | Tubastatin A 0.065 | [1] -0.044 | defactinib 0.451 | rucaparib 0.406 | [2] 0.134 | encorafenib -0.038 | [3] 0.129

HCLS1 (UniProt P14317)
inactive: saracatinib 0.036 | sotrastaurin 0.067 | alvocidib 0.006 | Tubastatin A 0.01 | [1] -0.027 | defactinib -0.048 | rucaparib -0.064 | [2] -0.038 | encorafenib -0.01 | [3] 0.029
